Measured values reported in paper doi:10.1101/2022.06.06.494580.
These are yes or no findings as the source states them, for the method shown. In cells and extracts the contact can be indirect. A yes stands for co-enrichment or nearness to the bait. Other partners may have been found.

By UniProt entry, the sequences of proteins in these tests, tags left out.
UniProt Q9UIV1: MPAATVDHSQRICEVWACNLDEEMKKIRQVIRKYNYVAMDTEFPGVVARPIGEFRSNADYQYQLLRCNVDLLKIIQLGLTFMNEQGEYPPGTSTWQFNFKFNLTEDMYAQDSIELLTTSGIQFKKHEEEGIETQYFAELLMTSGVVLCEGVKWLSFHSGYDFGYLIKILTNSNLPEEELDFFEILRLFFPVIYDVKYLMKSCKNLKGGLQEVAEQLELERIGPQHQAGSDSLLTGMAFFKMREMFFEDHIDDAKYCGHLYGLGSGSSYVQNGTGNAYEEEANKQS
UniProt Q9ULM6: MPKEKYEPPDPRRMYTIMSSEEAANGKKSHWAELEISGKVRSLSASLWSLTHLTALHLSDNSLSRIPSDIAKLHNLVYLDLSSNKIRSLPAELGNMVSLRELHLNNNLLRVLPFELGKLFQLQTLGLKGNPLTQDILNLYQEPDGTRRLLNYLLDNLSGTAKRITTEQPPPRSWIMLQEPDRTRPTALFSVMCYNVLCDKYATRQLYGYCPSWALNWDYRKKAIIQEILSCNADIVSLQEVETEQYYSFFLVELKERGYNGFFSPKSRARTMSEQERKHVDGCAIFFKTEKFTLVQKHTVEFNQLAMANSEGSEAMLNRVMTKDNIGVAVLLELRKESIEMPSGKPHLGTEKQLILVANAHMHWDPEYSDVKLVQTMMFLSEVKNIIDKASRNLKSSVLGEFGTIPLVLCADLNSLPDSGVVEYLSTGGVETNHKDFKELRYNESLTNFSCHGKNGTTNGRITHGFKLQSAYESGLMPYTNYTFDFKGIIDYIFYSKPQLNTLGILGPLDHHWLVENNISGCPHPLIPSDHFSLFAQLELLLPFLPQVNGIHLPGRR
UniProt Q9C0C2: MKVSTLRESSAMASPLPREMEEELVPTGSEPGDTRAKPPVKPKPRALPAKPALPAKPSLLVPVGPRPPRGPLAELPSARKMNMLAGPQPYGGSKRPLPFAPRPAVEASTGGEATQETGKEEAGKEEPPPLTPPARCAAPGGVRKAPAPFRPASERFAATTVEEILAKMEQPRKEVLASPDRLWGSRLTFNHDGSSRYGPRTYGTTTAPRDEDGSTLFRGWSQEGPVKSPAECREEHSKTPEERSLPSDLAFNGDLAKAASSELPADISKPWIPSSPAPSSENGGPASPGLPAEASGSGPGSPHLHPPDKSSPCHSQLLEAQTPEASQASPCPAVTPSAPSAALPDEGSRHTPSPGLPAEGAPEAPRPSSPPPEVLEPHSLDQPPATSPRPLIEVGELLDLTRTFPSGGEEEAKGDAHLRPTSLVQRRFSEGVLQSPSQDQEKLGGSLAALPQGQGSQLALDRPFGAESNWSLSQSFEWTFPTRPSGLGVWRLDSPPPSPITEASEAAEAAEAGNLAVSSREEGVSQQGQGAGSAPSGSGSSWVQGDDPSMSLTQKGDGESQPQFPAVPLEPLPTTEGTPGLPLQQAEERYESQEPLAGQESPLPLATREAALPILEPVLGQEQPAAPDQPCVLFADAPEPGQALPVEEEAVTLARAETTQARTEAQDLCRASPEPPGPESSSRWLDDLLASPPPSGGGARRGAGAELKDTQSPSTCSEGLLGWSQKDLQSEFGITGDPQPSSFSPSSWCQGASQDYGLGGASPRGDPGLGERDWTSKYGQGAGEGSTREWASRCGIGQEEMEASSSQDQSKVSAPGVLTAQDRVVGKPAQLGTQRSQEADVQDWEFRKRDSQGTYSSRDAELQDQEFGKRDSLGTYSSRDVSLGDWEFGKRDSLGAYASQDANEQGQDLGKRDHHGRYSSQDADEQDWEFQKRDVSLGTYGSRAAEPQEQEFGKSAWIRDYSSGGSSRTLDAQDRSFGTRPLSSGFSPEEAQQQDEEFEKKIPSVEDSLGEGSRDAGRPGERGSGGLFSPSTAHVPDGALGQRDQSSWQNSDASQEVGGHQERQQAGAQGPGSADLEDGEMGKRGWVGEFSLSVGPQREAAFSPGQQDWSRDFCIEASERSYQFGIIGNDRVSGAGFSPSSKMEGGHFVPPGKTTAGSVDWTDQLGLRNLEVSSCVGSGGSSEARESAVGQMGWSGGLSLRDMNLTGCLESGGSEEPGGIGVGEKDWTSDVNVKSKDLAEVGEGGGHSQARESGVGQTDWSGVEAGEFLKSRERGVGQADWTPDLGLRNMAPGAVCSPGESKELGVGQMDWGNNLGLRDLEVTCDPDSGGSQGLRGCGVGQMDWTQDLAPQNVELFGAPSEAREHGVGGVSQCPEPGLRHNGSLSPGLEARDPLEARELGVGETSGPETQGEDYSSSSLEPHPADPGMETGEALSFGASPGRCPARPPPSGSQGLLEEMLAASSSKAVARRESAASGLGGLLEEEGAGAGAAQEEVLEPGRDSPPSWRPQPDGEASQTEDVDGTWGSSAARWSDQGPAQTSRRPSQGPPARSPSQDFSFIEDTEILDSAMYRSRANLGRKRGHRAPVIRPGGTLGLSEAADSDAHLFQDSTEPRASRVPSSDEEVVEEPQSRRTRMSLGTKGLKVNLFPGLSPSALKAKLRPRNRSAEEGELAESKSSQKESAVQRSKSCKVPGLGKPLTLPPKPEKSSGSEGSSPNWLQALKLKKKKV

Target: 3′ 3X-FLAG-tagged CNOT7 (human) (UniProt Q9UIV1)
Test: affinity purification with mass spectrometry

| Substance | binding |
| --- | --- |
| CNOT6 (endogenous, Flp-In T-REx 293 lysate) (from UniProt Q9ULM6 1-557) | binds |
| TNKS1BP1 (endogenous, Flp-In T-REx 293 lysate) (from UniProt Q9C0C2 1-1729) | binds |
